# Reference: PubChem BioAssay AID624117 (National Center for Advancing Translational Sciences (NCATS), 2012)
# The shares of active, inactive and inconclusive entries below differ from those in the screen. Calls follow the shape of the dose curve; as a rule, active = well fitted curve in the direction sought with a large enough effect; inconclusive = small, poorly fitted or top-dose-only effect, or another doubt; inactive = no such curve, though single readings can be large or run the other way. Potencies of inconclusive entries are doubtful fits and often do not repeat.
# Assay: qHTS Assay for Rab9 Promoter Activators: Hit Validation Using Renilla Luciferase Read-Out
# Settings: Huh7 NPC1 promoter Renilla luciferase reporter, 24 h
# Excerpt: Niemann Pick Type C (NPC) is a rare neurodegenerative lipidosis that is characterized by lipid storage in the endosomal/lysosomal system. Treatment modalities for this devastating disease are currently non-existent due to the severe obstacles associated with accessing the central nervous system with proteins or genes. The majority of mutations causing NPC disease are missense mutations that are distributed throughout the length of the NPC1 protein, with the most prevalent being the I1061T allele. Although NPC1 mutant proteins may be functional, they are typically trapped in the ER due to misfolding. […] We have developed and optimized a cell based renilla luciferase reporter assay in 1536 well format for the identification of up-regulators of the mutant NPC1 promoter. This assay presents data on the validation of hits from the primary screen, which used a firefly luciferase read-out. NIH Chemical Genomics Center [NCGC] NIH Molecular Libraries Probe Production centers Network [MLPCN] MLPCN Grant: MH089375 Assay Submitter (PI): Yiannis A. Ioannou
# Huh7 cells stably expressing NPC promoter-luciferase will be seeded at 1,500 cells/well in 5 uL in 1,536-well white opaque plates with 23 nL/well of compound in DMSO solution. […] Luminescence signal will be measured in a ViewLux plate reader (Perkin Elmer) after a 10 minute incubation at the room temperature.
# Potency is read from the fitted curve at half-maximal effect.
compound,measurement,value
COc1ccc(C(CC(=O)N2CCC3(CC2)OCCO3)NS(=O)(=O)c2ccc(F)cc2)cc1 (stereo unspecified),Potency,"inconclusive: 58.2 µM [activator, partial curve, poor fit]"
